Patent publication US20190071518A1 (PIERRE FABRE MEDICAMENT, published 2019)
These are yes or no findings as the source states them, for the method shown. Some results given as binding are weak or reduced against the parent protein; the word gives no strength.

The chains behind the UniProt entries cited, without tags or fusion partners. Where a name states a change or a piece, a line headed by the entry shows the natural chain unless it says otherwise.
UniProt P78536: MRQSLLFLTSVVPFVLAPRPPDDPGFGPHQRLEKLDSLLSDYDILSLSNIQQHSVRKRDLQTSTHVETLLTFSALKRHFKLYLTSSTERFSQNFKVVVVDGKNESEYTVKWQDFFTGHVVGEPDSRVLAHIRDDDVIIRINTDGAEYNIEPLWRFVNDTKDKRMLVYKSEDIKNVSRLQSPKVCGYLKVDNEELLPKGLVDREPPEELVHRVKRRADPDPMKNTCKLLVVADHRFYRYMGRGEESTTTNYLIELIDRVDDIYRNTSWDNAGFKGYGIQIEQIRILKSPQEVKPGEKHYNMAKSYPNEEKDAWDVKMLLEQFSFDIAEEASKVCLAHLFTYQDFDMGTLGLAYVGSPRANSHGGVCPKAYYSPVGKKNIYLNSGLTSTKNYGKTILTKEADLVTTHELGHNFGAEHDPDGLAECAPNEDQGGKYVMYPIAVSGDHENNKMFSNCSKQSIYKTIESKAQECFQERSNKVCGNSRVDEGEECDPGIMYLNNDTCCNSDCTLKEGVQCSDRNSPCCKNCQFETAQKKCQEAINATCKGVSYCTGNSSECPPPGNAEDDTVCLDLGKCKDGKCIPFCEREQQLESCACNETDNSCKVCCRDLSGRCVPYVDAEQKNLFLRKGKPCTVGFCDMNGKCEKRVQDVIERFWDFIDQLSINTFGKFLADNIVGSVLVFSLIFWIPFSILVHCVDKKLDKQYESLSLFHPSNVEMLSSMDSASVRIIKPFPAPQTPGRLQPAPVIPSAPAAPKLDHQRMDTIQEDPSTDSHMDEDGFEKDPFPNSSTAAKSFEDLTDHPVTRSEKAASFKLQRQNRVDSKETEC

Experiments:
[1] = biological target: human ADAM17 H1-671 (P-C-D-MPD) human Fc fusion (human) (UniProt P78536); assay: western blot, non-reducing, 1 µg/ml 1022C3
[2] = biological target: human ADAM17 H457-671 (D-MPD) human Fc fusion (human) (UniProt P78536); assay: western blot, non-reducing, 1 µg/ml 1022C3
[3] = biological target: human ADAM17 H1-671 (P-C-D-MPD) human Fc fusion (human) (UniProt P78536); assay: SPR (Biacore X100), 1022C3 captured, analyte 250 nM
[4] = biological target: human ADAM17 H457-671 (D-MPD) human Fc fusion (human) (UniProt P78536); assay: as above

Measured: binding

B1: murine monoclonal antibody 1022C3 (antibody, V domains shown)
VH: QVTLKESGPGILQPSQTLSLTCSFSGFSLNTSGMGVSWIRQPSGKGLEWLAHIYWDDDKRYNPSLKSRLTISKDTSSNQVFLKITSLDTADTATYYCARRSHFGNYYYAMDYWGQGTSVTVTS
VL: DVQMTQTTSSLSASLGDRVTISCRASQDISSYLNWYQQKPDGTFKLLIFYTSRLQSGVPSKYSGSGSGTDYSLTISNLEQEDIAAYFCQQGKTLPLTFGAGTKLELK
modifications: N-glycosylated asparagine in CDR-H1
notes: Murine IgG from hybridoma I-4686, captured by anti-mouse antibody in the SPR assays; also called m1022C3; mAb 1022C3
binds: all assays above
